Laboratory results: PubChem BioAssay AID1224830 (NIAID, 2016)
Screen: 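Regulators of TLR4 signalling towards TNF-alpha in macrophage-like cells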 (primary screen). System: human THP-1 monocytic leukaemia cells, TNF dual-luciferase reporter clone, PMA-differentiated to macrophage-like cells. Reagent: siRNA pool against human genes, 50 nM. Time to read-out: LPS for 4 h, given about 3 days after siRNA transfection. Challenge: bacterial LPS (TLR4 ligand), 10 ng/ml. Read-out: 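TNF firefly reporter luminescence divided by renilla, normalised to the plate median, then turned into a robust z-score for each replicate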. Direction: TNF reporter robust z-score: higher = stronger TNF reporter response to LPS. Active means: 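Each well counts as active if its z-score is over 2.8 or under -1.5; controls are left without a call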.
The deposit covers about 18,000 reagents; this is a random part of them. Over the whole deposit, about 2,900 (16%) got an active call. 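Calls are made per well; low scores hint the gene aids the LPS response, high scores that it dampens it.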 Unmarked entries are inactive. Repeated entries: four replicate wells of each siRNA pool. No sequences are given here.

Target gene	TNF reporter robust z-score
RPL10A	-0.92
RPL10A	0.42
RPL10A	-0.49
RPL10A	-0.08
RAB1B	0.46
RAB1B	-0.72
RAB1B	-0.36
RAB1B	-0.14
MRTFA	-0.64
MRTFA	-0.18
MRTFA	-1.08
MRTFA	-0.57
LY75	0.08
LY75	-0.16
LY75	0.18
LY75	1.32
HDAC2	-1.4
HDAC2	-1.59 (active)
HDAC2	-0.71
HDAC2	-1.33
NOAZFP	-1.28
NOAZFP	-0.37
NOAZFP	-1.3
NOAZFP	-0.6
CRB1	2.28
CRB1	-0.57
CRB1	-0.98
CRB1	-0.24
LZTS2	-2.11 (active)
LZTS2	-2.04 (active)
LZTS2	-2.13 (active)
LZTS2	-2.15 (active)
TMEM35A	-0.69
TMEM35A	-0.85
TMEM35A	-1.21
TMEM35A	-1.48
SLFNL1	-0.87
SLFNL1	-0.02
SLFNL1	0.49
SLFNL1	-0.95
CDCA2	0
CDCA2	-0.27
CDCA2	-1.26
CDCA2	-0.62
RSRC2	2.39
RSRC2	2.35
RSRC2	3.41 (active)
RSRC2	3.26 (active)
HLA-G	-0.74
HLA-G	-1.03
HLA-G	-0.47
HLA-G	-0.53
DUS2	-0.26
DUS2	0.08
DUS2	-0.4
DUS2	2.36
CCDC14	0.12
CCDC14	0.03
CCDC14	0.49
CCDC14	0.19
H2AC11	1.72
H2AC11	1.4
H2AC11	0.07
H2AC11	-0.82
NEUROD6	-0.52
NEUROD6	-0.58
NEUROD6	-0.29
NEUROD6	-0.6
RBM23	-0.62
RBM23	-1.14
RBM23	-0.4
RBM23	1.8
ID1	0.5
ID1	0.58
ID1	0.82
ID1	1.32
SLC5A5	-1.16
SLC5A5	-1.12
SLC5A5	-0.91
SLC20A1	0.62
SLC20A1	1.23
SLC20A1	0.34
SLC20A1	2.58
WRAP53	-0.88
WRAP53	-0.6
WRAP53	-0.98
WRAP53	-0.58
TARDBP	0.92
TARDBP	1.68
TARDBP	1.34
TARDBP	1.43
CIMIP5	-0.89
CIMIP5	-1.08
CIMIP5	-0.67
CIMIP5	-1.34
PADI4	-0.09
PADI4	-0.8
PADI4	-1.54 (active)
PADI4	-0.2
INO80E	1.42
INO80E	0.81
INO80E	0.17
INO80E	-0.26
METTL8	-0.97
METTL8	0.38
METTL8	-0.13
METTL8	0.78
MTMR2	-0.91
MTMR2	-0.01
MTMR2	1.7
MTMR2	0.19

Records above whose gene name starts with W or w:
Target gene	TNF reporter robust z-score
WRAP53	-0.88
WRAP53	-0.6
WRAP53	-0.98
WRAP53	-0.58
